Results reported in patent publication US20170144972A1, “METHODS OF LOWERING PROPROTEIN CONVERTASE SUBTILISIN/KEXIN TYPE 9 (PCSK9)” (Catabasis Pharmaceuticals, Inc., priority 2012, published 2017).

Tested on: APOE*3Leiden mice
Assay: Plasma cholesterol and triglycerides in ApoE3Leiden mice on Western type diet, 2 and 4 weeks of treatment
Format: in vivo
Details: female APOE*3Leiden mice, WTD, I-8 0.75% w/w in diet, atorvastatin 0.0015% w/w in diet
Protocol: The study was conducted using female APOE*3Leiden mice (groups of each n=10) and one untreated reference control group on chow (n=5). To induce dyslipidemia, a high cholesterol Western type diet containing 1% cholesterol, 15% cacao butter, 40.5% sucrose and 1% corn oil (WTD) was fed to the mice for a total experimental period of 20 weeks (of which 4 weeks are a run-in period). To prevent oxidation of the test compound (I-8), 30 mg/kg alpha-tocopherol was added to the high cholesterol diets, i.e. also in the high cholesterol diet control.
In the first 4 weeks (run-in period), a pro-atherogenic state of dyslipidemia characterized by elevated plasma cholesterol levels (about 15-20 mM) was induced in all mice by feeding them an atherogenic diet containing 1% cholesterol. The mice were then separated into a control group (no treatment) and three treatment groups: i) compound I-8, ii) atorvastatin and iii) compound I-8+atorvastatin as as described below. The dyslipidemic mice were grouped on the basis of plasma cholesterol at t=0 assayed in 4 h fasting blood. Mice with low cholesterol after the run-in period were excluded so that homogenous experimental groups were obtained. A group of reference mice (n=5) remained on a chow diet during the complete study period (normolipidemic reference mice).
The doses of the test compounds were as follows: • Compound I-8: 0.75% w/w in diet. • Atorvastatin: 0.0015% w/w in diet (to achieve about 20% reduction in plasma cholesterol). • Alpha-tocopherol: 0.0030% w/w in diet
The test compounds, sufficient for approx. 3 kg of diet (i.e. 25 g of compound I-8), and alpha-tocopherol (>200 mg) were formulated before the start of the treatment period (t=0), by adding the test compounds to melted, hand warm cocoa butter and mixed for 5 min. This mix was then added to the master mix (containing the rest of the ingredients) and mixed thoroughly. The diet was frozen to −20° C. On the subsequent day, the diet was broken into small pellets (approx 5 g per piece) and freeze dried, and stored in vacuum sealed bags (approx 500 g) at −20° C. until use. […]

## CC(C)c1c(C(=O)Nc2ccccc2)c(-c2ccccc2)c(-c2ccc(F)cc2)n1CC[C@@H](O)C[C@@H](O)CC(=O)O [atorvastatin, reference compound]
2 weeks
  plasma cholesterol at t=2 weeks (FIG. 4): statistically significant reduction
4 weeks
  plasma cholesterol after 4 weeks of treatment (FIG. 5): Comparable level of cholesterol reduction
  plasma triglyceride levels after 4 weeks of treatment (FIG. 6): failed to show a statistically significant change
